PubChem BioAssay AID493246 – Drosophila RNAi Screening Center, 2011
The deposit covers about 21,000 reagents; this is a random part of those with a known target gene and a result. Of all reagents, 429 (2%) got an active call. 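Values are raw and not normalised between plates; calls rest on per-plate z-scores that were not deposited.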 Names joined by + are all predicted targets of the reagent. Not given: the amount of reagent, the time to read-out.

Aim: 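Identify essential fly genes by loss of cell viability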 (primary screen)
Cells: Drosophila Kc and S2R+ cells
Reagent: long dsRNA against Drosophila genes
Read-out: 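Cell number per well after knock-down, printed as raw plate values; calls were based on per-plate z-scores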
Direction: Kc cell number and S2R+ cell number: higher = more cells remaining
Active means: 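Active when the per-plate z-score of cell number is 3 or more in the direction of fewer cells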

Acsx1L (Acyl-CoA synthetase X1 L) — Kc cell number, rep 1: 1.19e6; Kc cell number, rep 2: 1.29e6; S2R+ cell number, rep 1: 1.13e6; S2R+ cell number, rep 2: 1.21e6; call: inactive
Khc (Kinesin heavy chain) — Kc cell number, rep 1: 1.33e6; Kc cell number, rep 2: 1.37e6; S2R+ cell number, rep 1: 1.15e6; S2R+ cell number, rep 2: 1.20e6; call: inactive
CG15386 + CG42371 — Kc cell number, rep 1: 1.51e6; Kc cell number, rep 2: 1.62e6; S2R+ cell number, rep 1: 1.04e6; S2R+ cell number, rep 2: 1.17e6; call: inactive
CG15249 — Kc cell number, rep 1: 1.61e6; Kc cell number, rep 2: 1.54e6; S2R+ cell number, rep 1: 1.08e6; S2R+ cell number, rep 2: 1.14e6; call: inactive
Gs1l (GS1-like) — Kc cell number, rep 1: 1.46e6; Kc cell number, rep 2: 1.41e6; S2R+ cell number, rep 1: 1.12e6; S2R+ cell number, rep 2: 1.27e6; call: inactive
CG17224 — Kc cell number, rep 1: 1.65e6; Kc cell number, rep 2: 1.66e6; S2R+ cell number, rep 1: 1.23e6; S2R+ cell number, rep 2: 1.41e6; call: inactive
CG6695 — Kc cell number, rep 1: 1.48e6; Kc cell number, rep 2: 1.49e6; S2R+ cell number, rep 1: 1.16e6; S2R+ cell number, rep 2: 1.21e6; call: inactive
CG42570 — Kc cell number, rep 1: 1.42e6; Kc cell number, rep 2: 1.59e6; S2R+ cell number, rep 1: 1.17e6; S2R+ cell number, rep 2: 1.36e6; call: inactive
Gk2 (Glycerol kinase 2) — Kc cell number, rep 1: 1.46e6; Kc cell number, rep 2: 1.44e6; S2R+ cell number, rep 1: 1.12e6; S2R+ cell number, rep 2: 1.11e6; call: inactive
CG3916 — Kc cell number, rep 1: 1.54e6; Kc cell number, rep 2: 1.50e6; S2R+ cell number, rep 1: 1.18e6; S2R+ cell number, rep 2: 1.28e6; call: inactive
sno (strawberry notch) — Kc cell number, rep 1: 5.64e5; S2R+ cell number, rep 1: 8.95e5; call: inactive
Rad51D (Rad51 recombinase D) — Kc cell number, rep 1: 1.54e6; Kc cell number, rep 2: 1.58e6; S2R+ cell number, rep 1: 1.26e6; S2R+ cell number, rep 2: 1.32e6; call: inactive

A run of entries from the list above:
CG3916 — Kc cell number, rep 1: 1.54e6; Kc cell number, rep 2: 1.50e6; S2R+ cell number, rep 1: 1.18e6; S2R+ cell number, rep 2: 1.28e6; call: inactive
sno (strawberry notch) — Kc cell number, rep 1: 5.64e5; S2R+ cell number, rep 1: 8.95e5; call: inactive
